{"source": "the supplement of paper PMC8728848", "binders": {"B1": {"name": "BSR4 (Toxoplasma gondii), Q95NL6 (protein)", "chain": "MVMMGSMQQRRGGLRSNARQLLAVCMSGVVFFSSGQAVADNLLEGLLHRTLQQQVEVTSRLTVAGSDAKCDFFTPATQDSPPVSGSLTLSKGRMTATFECSATQALSISTIPTNIEQNVCDPKKTTNGTVCQFGANGSAGTEVTLKDLLETDRIVNWKVNEQREESNKSQKWSLELHNEDLPLTDKAFVVGCQATSAARGTESGKTAACKLTVNVEARASSLAENNVVTCAYGKGSNPNPVEVEMSTEKNTLTINCGSDGSLQPTTYAEEYCVADSKDVNRCSTTRFVEIFPKFLKSWWVTETQKRTSATLTIPQTDLPEADQQFLVGCVPKKTAPEDPKKDKESGTETGAPTSCTVLVTVKAASSASHASPTVQILAAASSAAA"}}, "experiment_in_all_cases": "glycan array binding signal (z-score within array); higher = stronger binding", "conditions_in_all_cases": "glycan notation: IUPAC condensed, linker removed", "key": {"GlcNAc(b1-4)GlcNAc": {"target": "GlcNAc(b1-4)GlcNAc", "in_short": "(§1)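 The binding signal is a Z-score computed within each array. Data were drawn from 3228 arrays in the Consortium for Functional Glycomics database, restricted to those with a known protein sequence. Scores were averaged over arrays of the same protein sequence at different concentrations or buffers, and over linkers, and negative values can be taken as non-binding.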"}, "[1]": {"target": "GlcNAc(b1-4)GlcNAc(b1-4)GlcNAc", "in_short": "as §1"}, "[2]": {"target": "GlcNAc(b1-4)GlcNAc(b1-4)GlcNAc(b1-4)GlcNAc(b1-4)GlcNAc", "in_short": "as §1"}, "[3]": {"target": "GlcNAc(b1-4)GlcNAc(b1-4)GlcNAc(b1-4)GlcNAc(b1-4)GlcNAc(b1-4)GlcNAc", "in_short": "as §1"}, "[4]": {"target": "GlcNAc(b1-4)[GlcNAc(b1-6)]GalNAc", "in_short": "as §1"}, "[5]": {"target": "GlcNAc(b1-6)Gal(b1-4)GlcNAc", "in_short": "as §1"}, "GlcNAc(b1-6)GalNAc": {"target": "GlcNAc(b1-6)GalNAc", "in_short": "as §1"}, "GlcNAc3Prop(b1-4)GlcNAc": {"target": "GlcNAc3Prop(b1-4)GlcNAc", "in_short": "as §1"}, "[6]": {"target": "GlcNAc6S(b1-3)Gal(b1-4)GlcNAc", "in_short": "as §1"}, "Kdn(a2-3)Gal(b1-3)GalNAc": {"target": "Kdn(a2-3)Gal(b1-3)GalNAc", "in_short": "as §1"}, "Kdn(a2-3)Gal(b1-3)GlcNAc": {"target": "Kdn(a2-3)Gal(b1-3)GlcNAc", "in_short": "as §1"}, "Kdn(a2-3)Gal(b1-4)Glc": {"target": "Kdn(a2-3)Gal(b1-4)Glc", "in_short": "as §1"}, "Kdn(a2-3)Gal(b1-4)GlcNAc": {"target": "Kdn(a2-3)Gal(b1-4)GlcNAc", "in_short": "as §1"}, "[7]": {"target": "Kdn(a2-3)Gal(b1-4)[Fuc(a1-3)]GlcNAc", "in_short": "as §1"}, "Kdn(a2-6)Gal(b1-4)GlcNAc": {"target": "Kdn(a2-6)Gal(b1-4)GlcNAc", "in_short": "as §1"}, "[8]": {"target": "Man(a1-2)Man(a1-2)Man(a1-3)Man", "in_short": "as §1"}, "[9]": {"target": "Man(a1-2)Man(a1-2)Man(a1-6)[Man(a1-3)]Man", "in_short": "as §1"}, "Man(a1-2)Man(a1-3)Man": {"target": "Man(a1-2)Man(a1-3)Man", "in_short": "as §1"}, "[10]": {"target": "Man(a1-2)Man(a1-3)[Man(a1-2)Man(a1-6)]Man", "in_short": "as §1"}, "[11]": {"target": "Man(a1-2)Man(a1-3)[Man(a1-2)Man(a1-6)]Man(a1-6)[Man(a1-2)Man(a1-2)Man(a1-3)]Man", "in_short": "as §1"}, "[12]": {"target": "Man(a1-2)Man(a1-3)[Man(a1-2)Man(a1-6)]Man(a1-6)[Man(a1-2)Man(a1-2)Man(a1-3)]Man(b1-4)GlcNAc(b1-4)GlcNAc", "in_short": "as §1"}, "[13]": {"target": "Man(a1-2)Man(a1-3)[Man(a1-6)]Man(a1-6)[Man(a1-2)Man(a1-3)]Man(b1-4)GlcNAc(b1-4)GlcNAc", "in_short": "as §1"}, "[14]": {"target": "Man(a1-2)Man(a1-6)[Man(a1-3)]Man(a1-6)[Man(a1-2)Man(a1-2)Man(a1-3)]Man", "in_short": "as §1"}, "[15]": {"target": "Man(a1-2)Man(a1-6)[Man(a1-3)]Man(a1-6)[Man(a1-2)Man(a1-2)Man(a1-3)]Man(b1-4)GlcNAc(b1-4)GlcNAc", "in_short": "as §1"}, "Man(a1-3)[Man(a1-6)]Man": {"target": "Man(a1-3)[Man(a1-6)]Man", "in_short": "as §1"}, "[16]": {"target": "Man(a1-3)[Man(a1-6)]Man(a1-6)[Man(a1-2)Man(a1-3)]Man(b1-4)GlcNAc(b1-4)GlcNAc", "in_short": "as §1"}, "[17]": {"target": "Man(a1-3)[Man(a1-6)]Man(a1-6)[Man(a1-3)]Man", "in_short": "as §1"}, "[18]": {"target": "Man(a1-3)[Man(a1-6)]Man(a1-6)[Man(a1-3)]Man(b1-4)GlcNAc(b1-4)GlcNAc", "in_short": "as §1"}, "[19]": {"target": "Man(a1-3)[Man(a1-6)]Man(b1-4)GlcNAc(b1-4)GlcNAc", "in_short": "as §1"}, "Man(a1-6)Man": {"target": "Man(a1-6)Man", "in_short": "as §1"}, "Man(b1-4)GlcNAc": {"target": "Man(b1-4)GlcNAc", "in_short": "as §1"}, "Neu5Ac(a2-3)Gal": {"target": "Neu5Ac(a2-3)Gal", "in_short": "as §1"}, "[20]": {"target": "Neu5Ac(a2-3)Gal(b1-3)GalNAc", "in_short": "as §1"}, "[21]": {"target": "Neu5Ac(a2-3)Gal(b1-3)GalNAc(b1-3)Gal(a1-4)Gal(b1-4)Glc", "in_short": "as §1"}, "[22]": {"target": "Neu5Ac(a2-3)Gal(b1-3)GalNAc(b1-4)[Neu5Ac(a2-3)]Gal(b1-4)Glc", "in_short": "as §1"}, "[23]": {"target": "Neu5Ac(a2-3)Gal(b1-3)GalNAc6S", "in_short": "as §1"}, "[24]": {"target": "Neu5Ac(a2-3)Gal(b1-3)GlcNAc", "in_short": "as §1"}, "[25]": {"target": "Neu5Ac(a2-3)Gal(b1-3)GlcNAc(b1-2)Man(a1-3)[Neu5Ac(a2-3)Gal(b1-3)GlcNAc(b1-2)Man(a1-6)]Man(b1-4)GlcNAc(b1-4)GlcNAc", "in_short": "as §1"}}, "note": "The other results are listed elsewhere or left out."}
{"binder": "B1", "values": [{"measurement": "glycan array binding signal (z-score)", "setting": "GlcNAc(b1-4)GlcNAc", "result": 0.141}, {"measurement": "glycan array binding signal (z-score)", "setting": "[1]", "result": -0.561}, {"measurement": "glycan array binding signal (z-score)", "setting": "[2]", "result": -0.443}, {"measurement": "glycan array binding signal (z-score)", "setting": "[3]", "result": 0.269}, {"measurement": "glycan array binding signal (z-score)", "setting": "[4]", "result": 0.129}, {"measurement": "glycan array binding signal (z-score)", "setting": "[5]", "result": -0.652}, {"measurement": "glycan array binding signal (z-score)", "setting": "GlcNAc(b1-6)GalNAc", "result": -0.264}, {"measurement": "glycan array binding signal (z-score)", "setting": "GlcNAc3Prop(b1-4)GlcNAc", "result": -0.719}, {"measurement": "glycan array binding signal (z-score)", "setting": "[6]", "result": 0.064}, {"measurement": "glycan array binding signal (z-score)", "setting": "Kdn(a2-3)Gal(b1-3)GalNAc", "result": -0.111}, {"measurement": "glycan array binding signal (z-score)", "setting": "Kdn(a2-3)Gal(b1-3)GlcNAc", "result": 1.32}, {"measurement": "glycan array binding signal (z-score)", "setting": "Kdn(a2-3)Gal(b1-4)Glc", "result": 0.397}, {"measurement": "glycan array binding signal (z-score)", "setting": "Kdn(a2-3)Gal(b1-4)GlcNAc", "result": 0.831}, {"measurement": "glycan array binding signal (z-score)", "setting": "[7]", "result": 0.006}, {"measurement": "glycan array binding signal (z-score)", "setting": "Kdn(a2-6)Gal(b1-4)GlcNAc", "result": -0.315}, {"measurement": "glycan array binding signal (z-score)", "setting": "[8]", "result": 0.205}, {"measurement": "glycan array binding signal (z-score)", "setting": "[9]", "result": 0.245}, {"measurement": "glycan array binding signal (z-score)", "setting": "Man(a1-2)Man(a1-3)Man", "result": 0.738}, {"measurement": "glycan array binding signal (z-score)", "setting": "[10]", "result": 0.519}, {"measurement": "glycan array binding signal (z-score)", "setting": "[11]", "result": -0.451}, {"measurement": "glycan array binding signal (z-score)", "setting": "[12]", "result": -0.311}, {"measurement": "glycan array binding signal (z-score)", "setting": "[13]", "result": -0.237}, {"measurement": "glycan array binding signal (z-score)", "setting": "[14]", "result": -0.324}, {"measurement": "glycan array binding signal (z-score)", "setting": "[15]", "result": -0.294}, {"measurement": "glycan array binding signal (z-score)", "setting": "Man(a1-3)[Man(a1-6)]Man", "result": 0.118}, {"measurement": "glycan array binding signal (z-score)", "setting": "[16]", "result": 1.03}, {"measurement": "glycan array binding signal (z-score)", "setting": "[17]", "result": -0.559}, {"measurement": "glycan array binding signal (z-score)", "setting": "[18]", "result": -0.42}, {"measurement": "glycan array binding signal (z-score)", "setting": "[19]", "result": 0.597}, {"measurement": "glycan array binding signal (z-score)", "setting": "Man(a1-6)Man", "result": -0.56}, {"measurement": "glycan array binding signal (z-score)", "setting": "Man(b1-4)GlcNAc", "result": 0.505}, {"measurement": "glycan array binding signal (z-score)", "setting": "Neu5Ac(a2-3)Gal", "result": 0.444}, {"measurement": "glycan array binding signal (z-score)", "setting": "[20]", "result": -0.071}, {"measurement": "glycan array binding signal (z-score)", "setting": "[21]", "result": -0.643}, {"measurement": "glycan array binding signal (z-score)", "setting": "[22]", "result": 0.324}, {"measurement": "glycan array binding signal (z-score)", "setting": "[23]", "result": -0.333}, {"measurement": "glycan array binding signal (z-score)", "setting": "[24]", "result": -0.76}, {"measurement": "glycan array binding signal (z-score)", "setting": "[25]", "result": -0.633}]}
